We go through two substances from publication PMC5494197.

Amino acid sequences for entries named in this document (tags omitted). Residues count along the entry.
UniProt P56480, residues 47-529: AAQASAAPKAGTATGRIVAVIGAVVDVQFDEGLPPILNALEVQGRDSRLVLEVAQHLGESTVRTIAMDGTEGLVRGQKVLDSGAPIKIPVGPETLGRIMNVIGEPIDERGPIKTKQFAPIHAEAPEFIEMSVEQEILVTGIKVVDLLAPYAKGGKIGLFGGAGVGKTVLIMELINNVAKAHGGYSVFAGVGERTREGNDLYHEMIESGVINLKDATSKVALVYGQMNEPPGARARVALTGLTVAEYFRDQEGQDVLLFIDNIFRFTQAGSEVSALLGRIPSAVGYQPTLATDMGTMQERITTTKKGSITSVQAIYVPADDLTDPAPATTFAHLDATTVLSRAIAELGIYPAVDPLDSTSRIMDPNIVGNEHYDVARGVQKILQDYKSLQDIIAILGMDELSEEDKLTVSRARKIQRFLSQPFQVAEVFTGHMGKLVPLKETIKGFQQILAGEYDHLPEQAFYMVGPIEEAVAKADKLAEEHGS
UniProt Q03265, residues 44-553: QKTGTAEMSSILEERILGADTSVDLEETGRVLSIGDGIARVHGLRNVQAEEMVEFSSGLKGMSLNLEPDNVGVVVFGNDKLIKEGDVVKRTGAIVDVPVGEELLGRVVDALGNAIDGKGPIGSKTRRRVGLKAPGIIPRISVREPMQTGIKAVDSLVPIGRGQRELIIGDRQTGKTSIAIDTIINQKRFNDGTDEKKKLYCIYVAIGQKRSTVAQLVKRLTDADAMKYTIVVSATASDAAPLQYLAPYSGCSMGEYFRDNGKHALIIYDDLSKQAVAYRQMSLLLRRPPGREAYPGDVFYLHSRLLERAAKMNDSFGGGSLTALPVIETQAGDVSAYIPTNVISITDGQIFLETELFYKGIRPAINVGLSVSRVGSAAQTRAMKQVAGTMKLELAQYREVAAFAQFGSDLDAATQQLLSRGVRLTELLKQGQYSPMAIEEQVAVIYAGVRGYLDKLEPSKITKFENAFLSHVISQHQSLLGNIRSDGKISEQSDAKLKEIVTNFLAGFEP

Results are given in words; binding and its absence hold for the method and conditions named. Binding seen in cells or lysates may run through a third protein. Some results given as binding are weak or reduced against the parent protein; the word gives no strength. Sequences can lack the tags named with a protein.

In the assay the target is T1, GST-tagged OSCP (oligomycin sensitivity conferring protein), wild type (human) (UniProt P48047).
T1 sequence: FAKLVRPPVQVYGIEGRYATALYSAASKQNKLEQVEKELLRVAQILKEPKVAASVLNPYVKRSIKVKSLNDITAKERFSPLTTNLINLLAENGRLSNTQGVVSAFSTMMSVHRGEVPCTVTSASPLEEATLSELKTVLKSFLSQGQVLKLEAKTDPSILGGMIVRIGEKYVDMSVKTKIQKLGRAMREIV
Kind of assay: pull-down; GST-tagged OSCP on glutathione agarose, pre-incubated with or without Aβ1–42, unbound Aβ1–42 washed off, then incubated overnight at 4 °C with mitochondria lysates; blotted for α- and β-subunits; only the target purified.

Take “F1FO-ATP synthase β-subunit (from UniProt P56480 47-529)”: the binding entry is “binds”.

Regarding “F1FO-ATP synthase α-subunit (from UniProt Q03265 44-553)”, the binding result is on record as “binds”.
